Assay [1] addresses T1, His6-tagged full-length Sgt1 R93A (S. cerevisiae) (UniProt Q08446).
T1 sequence: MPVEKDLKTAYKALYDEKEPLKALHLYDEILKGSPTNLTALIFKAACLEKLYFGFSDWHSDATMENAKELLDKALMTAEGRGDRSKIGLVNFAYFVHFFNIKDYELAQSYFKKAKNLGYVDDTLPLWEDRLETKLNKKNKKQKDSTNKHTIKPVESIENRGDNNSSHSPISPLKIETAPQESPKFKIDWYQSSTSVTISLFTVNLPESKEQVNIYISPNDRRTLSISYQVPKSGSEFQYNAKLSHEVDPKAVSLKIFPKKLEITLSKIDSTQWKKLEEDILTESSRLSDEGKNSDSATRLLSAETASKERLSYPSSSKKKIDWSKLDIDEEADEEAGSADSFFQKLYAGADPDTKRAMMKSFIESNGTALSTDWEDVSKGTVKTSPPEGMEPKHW
Briefly: pull-down; His-Sgt1 (9 nmoles) held on Ni Sepharose resin blocked with BSA, 20 nmoles Skp1 added for 1 h; 25 mM HEPES pH 7, 100 mM NaCl; both purified.

By UniProt entry, the sequences of proteins in these tests, tags left out.
UniProt P52286: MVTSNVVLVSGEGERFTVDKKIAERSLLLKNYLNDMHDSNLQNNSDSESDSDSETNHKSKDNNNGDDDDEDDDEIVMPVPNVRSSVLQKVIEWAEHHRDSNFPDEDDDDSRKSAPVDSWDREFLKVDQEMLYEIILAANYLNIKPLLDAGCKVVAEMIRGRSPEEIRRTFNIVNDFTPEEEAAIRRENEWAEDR

The target in assay [2] is T2, His6-tagged full-length Sgt1 W127A (S. cerevisiae) (UniProt Q08446).
T2 sequence: T1 sequence with A93R, W127A
Described as above.

Drawing on PMC5282575, “The crystal structure of the Sgt1-Skp1 complex: the link between Hsp90 and both SCF E3 ubiquitin ligases and kinetochores” (Scientific Reports, 2017), this text covers binding for one substance.

Residue numbers refer to the chain shown, from its start. Results are given in words; binding and its absence hold for the method and conditions named. Tags and fused reporters may be left off the sequences shown.

In the case of “full-length Skp1 (untagged), Saccharomyces cerevisiae (from UniProt P52286 1-194)”, the binding result in assay [1] and in assay [2] was “no binding (tested: 20 nmoles Skp1 on 9 nmoles His-Sgt1)” each time.
